Numbering of substitutions follows the chain as printed. Results are given in words; binding and its absence hold for the method and conditions named. Tags and fused reporters may be left off the sequences shown.
Columns and labels:
[1] = molecular target: T1, human IL-18 receptor alpha extracellular domain (residues 20-329), C-terminal 6xHis, R123A-T126A-S127A-K128A (human) (UniProt Q13478); test: SPR; BIAcore 3000, 25 °C; C-terminal 6xHis IL-18Rα (wild type or mutant) immobilised at about 200 RU on a Ni-NTA sensor chip; IL-18 (wild type or mutant) injected as analyte in HBS-P (10 mM HEPES-Na pH 7.4, 150 mM NaCl, 0.01% P-20), 30 µl/min, 180 s association, 360 s dissociation; triplicate; both purified
T1 sequence: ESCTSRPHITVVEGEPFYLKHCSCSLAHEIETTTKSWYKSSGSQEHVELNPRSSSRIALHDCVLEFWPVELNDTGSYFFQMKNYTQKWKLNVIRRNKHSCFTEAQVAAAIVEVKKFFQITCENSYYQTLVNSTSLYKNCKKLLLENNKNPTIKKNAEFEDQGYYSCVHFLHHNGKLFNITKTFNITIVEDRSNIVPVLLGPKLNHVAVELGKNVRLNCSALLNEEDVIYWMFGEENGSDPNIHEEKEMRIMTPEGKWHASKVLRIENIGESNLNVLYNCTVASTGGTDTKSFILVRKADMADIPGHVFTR

The chains behind the UniProt entries cited, without tags or fusion partners. Residues count along the entry.
UniProt Q14116, residues 37-193: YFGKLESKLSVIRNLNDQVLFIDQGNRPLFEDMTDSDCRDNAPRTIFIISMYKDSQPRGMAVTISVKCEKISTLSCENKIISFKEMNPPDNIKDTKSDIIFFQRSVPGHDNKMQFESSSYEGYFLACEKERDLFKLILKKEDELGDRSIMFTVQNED

[2] = molecular target: T2, human IL-18 receptor alpha extracellular domain (residues 20-329), C-terminal 6xHis, T23A-R25A-H27A-T29A (human) (UniProt Q13478); test: as above
T2 sequence: T1 sequence with T4A, R6A, H8A, T10A, A104R, A107T, A108S, A109K

[3] = molecular target: T3, human IL-18 receptor alpha extracellular domain (residues 20-329), C-terminal 6xHis, E253A-E254A-E263A (human) (UniProt Q13478); test: as above
T3 sequence: T1 sequence with A104R, A107T, A108S, A109K, E234A, E235A, E244A

[4] = molecular target: T4, IL-18Rβ Y212A, C-terminal 6xHis tagged extracellular domains (residues 15-356), for SPR (human) (UniProt O95256); test: SPR; BIAcore 3000, 25 °C, C-terminal 6xHis IL-18Rβ immobilised (~100 RU) on an NTA sensor chip, un-tagged IL-18Rα saturated with 500 nM IL-18 as analyte in HBS-P; both purified
T4 sequence: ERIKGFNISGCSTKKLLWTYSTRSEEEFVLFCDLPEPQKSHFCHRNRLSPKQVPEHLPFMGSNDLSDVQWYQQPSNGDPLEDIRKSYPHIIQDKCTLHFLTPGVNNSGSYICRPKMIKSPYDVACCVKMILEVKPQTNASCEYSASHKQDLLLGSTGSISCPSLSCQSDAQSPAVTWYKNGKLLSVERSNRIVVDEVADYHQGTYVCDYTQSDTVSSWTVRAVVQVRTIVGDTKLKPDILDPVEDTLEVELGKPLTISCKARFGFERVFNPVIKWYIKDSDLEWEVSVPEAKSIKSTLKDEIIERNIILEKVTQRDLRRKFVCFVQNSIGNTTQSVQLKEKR

Row | Substance | binding [1] | binding [2] | binding [3] | binding [4]
1 | human interleukin-18, mature (residues 1-157), wild type (from UniProt Q14116 37-193) (ligand) | no binding | no binding | no binding | –
2 | IL-18 WT/IL-18Rα WT complex (SPR analyte) (from UniProt Q14116 37-193; Q13478 20-329) | – | – | – | no binding

Source: paper PMC4275594
